Reference: publication PMC8610266
No constants are given. Whether binding was seen depends on the method and setting. Binding can be weak; no strength is given. Where a sequence is shown, tags or fusion partners need not be part of it.

Amino acid sequences for entries named in this document (tags omitted). A change or cut given only in a name is not applied to a line headed by its entry.
UniProt P0C0W9: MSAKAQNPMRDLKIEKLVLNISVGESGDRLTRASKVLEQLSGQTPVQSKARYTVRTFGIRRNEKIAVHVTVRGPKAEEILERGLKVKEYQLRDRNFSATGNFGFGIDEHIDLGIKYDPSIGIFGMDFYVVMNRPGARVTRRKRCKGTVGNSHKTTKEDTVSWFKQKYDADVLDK
UniProt Q02753: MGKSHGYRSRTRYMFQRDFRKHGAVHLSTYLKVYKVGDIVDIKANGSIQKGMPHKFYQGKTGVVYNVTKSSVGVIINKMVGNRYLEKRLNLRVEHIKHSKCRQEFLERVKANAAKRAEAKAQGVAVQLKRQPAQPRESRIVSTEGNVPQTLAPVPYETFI
UniProt P87262: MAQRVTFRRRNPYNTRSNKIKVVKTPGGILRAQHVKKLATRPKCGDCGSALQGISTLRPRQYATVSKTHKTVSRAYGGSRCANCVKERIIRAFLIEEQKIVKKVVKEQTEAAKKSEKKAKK

target: T1, Nog1-TAP (LSU biogenesis factor Nog1 chromosomally encoded in fusion with a tandem affinity purification tag) (S. cerevisiae) (UniProt Q02892); test: cryo-EM structure; LSU precursor particles (with pre-rRNA) associated with TAP tagged Nog1, purified in one step on rabbit IgG magnetic beads from yeast extract in buffer A200 (200 mM potassium chloride, 20 mM Tris pH8, 5 mM magnesium acetate), eluted with TEV protease; single particle cryo-EM, maps of sub-nanometre resolution, models by flexible fitting of published models; control strain Y1877 and strains with expression of rpL2, rpL25 or rpL34 shut down for 4 h in glucose
T1 sequence: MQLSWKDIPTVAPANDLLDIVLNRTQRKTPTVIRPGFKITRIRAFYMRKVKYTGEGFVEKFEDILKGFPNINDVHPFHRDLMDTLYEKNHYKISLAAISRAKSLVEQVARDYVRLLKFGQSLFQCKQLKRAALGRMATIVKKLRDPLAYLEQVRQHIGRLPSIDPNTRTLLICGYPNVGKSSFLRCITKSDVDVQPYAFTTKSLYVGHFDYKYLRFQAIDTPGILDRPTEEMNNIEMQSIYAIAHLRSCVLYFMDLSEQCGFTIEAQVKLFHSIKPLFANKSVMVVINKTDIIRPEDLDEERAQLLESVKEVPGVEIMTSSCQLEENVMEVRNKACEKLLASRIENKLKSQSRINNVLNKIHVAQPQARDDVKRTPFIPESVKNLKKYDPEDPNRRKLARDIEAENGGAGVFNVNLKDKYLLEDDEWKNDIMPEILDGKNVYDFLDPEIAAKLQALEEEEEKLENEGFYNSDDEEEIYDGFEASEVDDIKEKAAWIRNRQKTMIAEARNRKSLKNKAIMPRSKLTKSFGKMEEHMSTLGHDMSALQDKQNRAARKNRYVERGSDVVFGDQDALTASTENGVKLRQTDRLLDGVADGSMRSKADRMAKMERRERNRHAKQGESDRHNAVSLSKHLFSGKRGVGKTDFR

binding, binds:
rpL11 (from UniProt P0C0W9)
rpL21 (from UniProt Q02753)
rpL34 (eL34) (from UniProt P87262)
